Results are given in words; binding and its absence hold for the method and conditions named. Some results given as binding are weak or reduced against the parent protein; the word gives no strength.
Biological target: Respiratory syncytial virus matrix (M) protein (respiratory syncytial virus, strain rA2-mK+ (parent strain A2)) (UniProt P0DOE7)
Assay: cryo-EM structure

B1: Respiratory syncytial virus matrix (M) protein (protein, UniProt P0DOE7 1-256)
chain: METYVNKLHEGSTYTAAVQYNVLEKDDDPASLTIWVPMFQSSMPADLLIKELANVNILVKQISTPKGPSLRVMINSRSAVLAQMPSKFTICANVSLDERSKLAYDVTTPCEIKACSLTCLKSKNMLTTVKDLTMKTLNPTHDIIALCEFENIVTSKKVIIPTYLRSISVRNKDLNTLENITTTEFKNAITNAKIIPYSGLLLVITVTDNKGAFKYIKPQSQFIVDLGAYLEKESIYYVTTNWKHTATRFAIKPMED
With B1 the binding was “binds”.
